PubChem BioAssay AID504808 | Drosophila RNAi Screening Center, 2011
Screen: 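Chromatin factors that keep E2F targets switched off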 (primary screen). Cell system: Drosophila S2 cells. Reagent: long dsRNA against Drosophila genes. Measurement: 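Firefly luciferase driven by E2F sites, normalised to Renilla luciferase on the same minimal promoter, measured by plate reader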. Reading the numbers: E2F firefly: higher = more E2F reporter activity; Renilla normaliser: higher = more normaliser reporter signal. Rule for the call: 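a knock-down counted as active when the firefly/Renilla E2F signal rose above 50%, a threshold chosen arbitrarily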.
In all, the deposit lists about 21,000 reagents; shown is a random part of those that have a named target and a result. Over the whole deposit, 18 (0.084%) were called active. 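Raw counts without plate normalisation, one of two replicates; the ratio scores behind the calls were not deposited.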 Reagents against one gene are numbered here. The record does not give: the amount of reagent, the time to read-out.

With knock-down of cGlr2 the results were E2F firefly, rep 1 = 1.10e5; Renilla normaliser, rep 1 = 6430; inactive. Against CG13784 #1 the deposit lists E2F firefly, rep 1 = 1.50e5; Renilla normaliser, rep 1 = 6755; inactive. Against CG13784 #2, the entry reads E2F firefly, rep 1 = 1.08e5; Renilla normaliser, rep 1 = 217; inactive. CG15534 gave E2F firefly, rep 1 = 1.22e5; Renilla normaliser, rep 1 = 6780; inactive. Silencing of CG11211 came out at: E2F firefly, rep 1 = 1.11e5; Renilla normaliser, rep 1 = 4854; inactive. Against pAbp the deposit lists E2F firefly, rep 1 = 42004; Renilla normaliser, rep 1 = 3023; inactive.

CG9380 gave E2F firefly, rep 1 = 1.24e5; Renilla normaliser, rep 1 = 4433; inactive. After knock-down of Cdc45 #1, the screen gave E2F firefly, rep 1 = 2303; Renilla normaliser, rep 1 = 796; inactive. Against Cdc45 #2 the deposit lists E2F firefly, rep 1 = 47574; Renilla normaliser, rep 1 = 3146; inactive. CG10516 scored E2F firefly, rep 1 = 1.66e5; Renilla normaliser, rep 1 = 7780; inactive. After knock-down of CG4907, the record shows E2F firefly, rep 1 = 1.08e5; Renilla normaliser, rep 1 = 5365; inactive. After knock-down of blp, the screen gave E2F firefly, rep 1 = 1.23e5; Renilla normaliser, rep 1 = 6574; inactive.

Ordered by “E2F firefly, rep 1” (highest first): 2 of the entries above.
CG13784 #1 — E2F firefly, rep 1: 1.50e5; Renilla normaliser, rep 1: 6755; Call: inactive
cGlr2 — E2F firefly, rep 1: 1.10e5; Renilla normaliser, rep 1: 6430; Call: inactive

Further reagents:
CG5162 scored E2F firefly, rep 1 = 1.49e5; Renilla normaliser, rep 1 = 5817; inactive. With knock-down of CheB98a the results were E2F firefly, rep 1 = 1.12e5; Renilla normaliser, rep 1 = 6090; inactive. Against Mip the deposit lists E2F firefly, rep 1 = 64128; Renilla normaliser, rep 1 = 3288; inactive. Knock-down of prd1 came out at: E2F firefly, rep 1 = 1.30e5; Renilla normaliser, rep 1 = 5893; inactive. otp #1 showed E2F firefly, rep 1 = 1.07e5; Renilla normaliser, rep 1 = 4249; inactive. With knock-down of otp #2, the screen gave E2F firefly, rep 1 = 1.01e5; Renilla normaliser, rep 1 = 4055; inactive.

After knock-down of fd59A the results were E2F firefly, rep 1 = 73240; Renilla normaliser, rep 1 = 3352; inactive.
